PubChem BioAssay AID504774 | Drosophila RNAi Screening Center, 2011
The deposit covers about 23,000 reagents; below is an unselected part of those that have a named target and a result. 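Values are quantile-normalised luminescence on an arbitrary scale; higher means more cells surviving MMS.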 Further read-outs or replicates are left out here.

- Test: 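Knock-downs that shift viability of MMS-exposed cells relative to untreated ones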 (primary screen)
- System: Drosophila Kc167 cells
- Knock-down reagent: long dsRNA against Drosophila genes, about 0.25 µg dsRNA per well
- Duration: about 6 days: 3 days knock-down, then 3 days with or without MMS
- Challenge: methyl methanesulphonate 0.004% (w/v) for 3 days after knock-down
- Read-out: 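ATP-dependent luminescence as a measure of live cells in MMS-exposed wells, quantile normalised within each plate, with replicate values also given as a mean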
- Direction: mean viability with MMS and viability with MMS: higher = more surviving cells after MMS

With Nha1 (GeneID 33961) [DRSC02109], how do the results read?
mean viability with MMS: 3.43e6; viability with MMS, replicate 1: 4.02e6

With CG2267 (GeneID 43639) [DRSC15435], what was measured?
mean viability with MMS: 3.39e6; viability with MMS, replicate 1: 3.78e6

With CG13609 (GeneID 42883) [DRSC14612], what does the deposit list?
mean viability with MMS: 3.47e6; viability with MMS, replicate 1: 3.95e6

Which result is listed for CG13609 (GeneID 42883) [DRSC22843]?
mean viability with MMS: 3.42e6; viability with MMS, replicate 1: 3.98e6

What did the screen give for Kap-alpha1 (GeneID 40160) [DRSC11356]?
mean viability with MMS: 3.52e6; viability with MMS, replicate 1: 4.05e6

What is on record for CG1791 (GeneID 31927) [DRSC18141]?
mean viability with MMS: 3.60e6; viability with MMS, replicate 1: 3.98e6

Which result is listed for Tim17a2 (GeneID 40632) [DRSC12252]?
mean viability with MMS: 3.63e6; viability with MMS, replicate 1: 4.12e6

With CG13599 (GeneID 42829) [DRSC14602], what does the deposit list?
mean viability with MMS: 3.57e6; viability with MMS, replicate 1: 4.18e6

Which result is listed for CG11768 (GeneID 41046) [DRSC14377]?
mean viability with MMS: 3.25e6; viability with MMS, replicate 1: 3.74e6

What is on record for CG11768 (GeneID 41046) [DRSC23219]?
mean viability with MMS: 3.44e6; viability with MMS, replicate 1: 3.87e6

For CG5346 (GeneID 42653) [DRSC15778], what was measured?
mean viability with MMS: 3.38e6; viability with MMS, replicate 1: 3.96e6

For pncr004:X (retired record) (GeneID 3772236) [DRSC19295], how do the results read?
mean viability with MMS: 3.69e6; viability with MMS, replicate 1: 4.08e6

Which result is listed for up (GeneID 32314) [DRSC20382]?
mean viability with MMS: 3.51e6; viability with MMS, replicate 1: 4.05e6

What is on record for CG11975 (GeneID 41074) [DRSC14452]?
mean viability with MMS: 3.56e6; viability with MMS, replicate 1: 3.96e6

How did the screen score PolE2 (GeneID 38661) [DRSC09737]?
mean viability with MMS: 3.64e6; viability with MMS, replicate 1: 4.06e6

What did the screen give for Cpr50Cb (GeneID 36525) [DRSC06975]?
mean viability with MMS: 3.47e6; viability with MMS, replicate 1: 4.06e6

For mRpL9 (GeneID 41859) [DRSC15678], what was measured?
mean viability with MMS: 3.50e6; viability with MMS, replicate 1: 4.15e6

For CG10863 (GeneID 38463) [DRSC08145], what does the deposit list?
mean viability with MMS: 3.68e6; viability with MMS, replicate 1: 4.04e6

What did the screen give for MAPk-Ak2 (GeneID 44573) [DRSC18678]?
mean viability with MMS: 3.70e6; viability with MMS, replicate 1: 4.39e6

What is on record for CG11737 (GeneID 41009) [DRSC14364]?
mean viability with MMS: 3.58e6; viability with MMS, replicate 1: 4.12e6

Not a retest: an excerpt of the list.
Tim17a2 (GeneID 40632) [DRSC12252]: mean viability with MMS = 3.63e6; viability with MMS, replicate 1 = 4.12e6
CG13599 (GeneID 42829) [DRSC14602]: mean viability with MMS = 3.57e6; viability with MMS, replicate 1 = 4.18e6
CG11768 (GeneID 41046) [DRSC14377]: mean viability with MMS = 3.25e6; viability with MMS, replicate 1 = 3.74e6

More entries follow.
What did the screen give for CG14797 (GeneID 31123) [DRSC17955]?
mean viability with MMS: 3.55e6; viability with MMS, replicate 1: 4.00e6

How did the screen score fun (retired record) (GeneID 5657936) [DRSC12300]?
mean viability with MMS: 3.70e6; viability with MMS, replicate 1: 4.18e6

With lncRNA:Hsromega (GeneID 3772547) [DRSC22875], how do the results read?
mean viability with MMS: 3.18e6; viability with MMS, replicate 1: 3.83e6

What is on record for CG13643 (GeneID 50074) [DRSC14641]?
mean viability with MMS: 3.56e6; viability with MMS, replicate 1: 4.00e6

For CG13643 (GeneID 50074) [DRSC14642], how do the results read?
mean viability with MMS: 3.60e6; viability with MMS, replicate 1: 4.01e6

With Rel (GeneID 41087) [DRSC16819], what was measured?
mean viability with MMS: 3.56e6; viability with MMS, replicate 1: 4.19e6

How did the screen score Polr3D (GeneID 40002) [DRSC10485]?
mean viability with MMS: 3.35e6; viability with MMS, replicate 1: 3.72e6

With Cad74A (GeneID 39936) [DRSC10636], what was measured?
mean viability with MMS: 3.50e6; viability with MMS, replicate 1: 4.00e6

How did the screen score Nmnat (GeneID 42987) [DRSC14644]?
mean viability with MMS: 3.44e6; viability with MMS, replicate 1: 3.86e6

With CG32344 (GeneID 326208) [DRSC08578], how do the results read?
mean viability with MMS: 3.50e6; viability with MMS, replicate 1: 4.05e6

For ath (GeneID 34357) [DRSC02788], how do the results read?
mean viability with MMS: 3.62e6; viability with MMS, replicate 1: 4.01e6

With PCB (GeneID 36020) [DRSC05939], how do the results read?
mean viability with MMS: 3.63e6; viability with MMS, replicate 1: 4.14e6

For Hrb87F (GeneID 48535) [DRSC16708], how do the results read?
mean viability with MMS: 3.40e6; viability with MMS, replicate 1: 3.84e6

With CG16868 (GeneID 37298) [DRSC06633], what does the deposit list?
mean viability with MMS: 3.49e6; viability with MMS, replicate 1: 3.90e6

Which result is listed for Clc (GeneID 40221) [DRSC11116]?
mean viability with MMS: 3.64e6; viability with MMS, replicate 1: 4.12e6
